This is a selection; strong and weak results do not stand in their true shares. At the low end of the ranking the order means little.

This test has as its target SPI1 (UniProt P17947). Put plainly: DAPPL (digital affinity profiling via proximity ligation, sequencing). The settings on record: 10 mM Tris-HCl pH 7.5, 50 mM NaCl, 1 mM DTT, 4% glycerol, room temperature, 30 min; GST-TFs on glutathione beads, 16-mer random dsDNA library, 0.1% …; high values mean tight binding; double strand, one strand shown; scale: fold enrichment (6-mer frequency, TF over GST control).

For the sequence GCTGGC, the binding signal was found to be 1.

As for TTCTAA, the binding signal came to 1.14.

The sequence ATCAAG displayed a binding signal of 0.897.

In turn, CCGGCG had a binding signal of 0.97.

In turn, TCGCGA displayed a binding signal of 0.854.

Take TGGATA: the binding signal is 0.98.

In the case of GACCGA, the binding signal is 0.864.

Sequence ACTCGA registered a binding signal of 1.26.

TTAGTG had a binding signal of 0.786.

Consider AATCTG, for which the binding signal turned out to be 1.42.

GGATTC: the binding signal stood at 0.975.

In turn, ACCATT returned a binding signal of 1.16.

In the case of GACTAC, the binding signal was 1.12.

Consider GGTTAA, for which the binding signal was 0.918.

In turn, GGTACA yielded a binding signal of 0.95.

GCAACT came in with a binding signal of 1.23.

With ATCGCA, the binding signal was found to be 0.95.

For TACGCG, the binding signal stood at 1.12.

Consider GATTTA, for which the binding signal came out at 0.962.

As for GGGATT, the binding signal stood at 0.839.

ACGTCT showed a binding signal of 1.15.

In the case of CGAACG, the binding signal was determined as 0.891.

TAGCGC registered a binding signal of 0.918.

For GATGTC, the binding signal came to 1.23.

Consider CGCCAC, for which the binding signal worked out at 0.955.

Sequence CCCGTA displayed a binding signal of 1.19.

The sequence GTATGT displayed a binding signal of 0.95.

ACTGGG: the binding signal was 0.879.

Take ATTAGT: the binding signal worked out at 0.934.

With CATCCA, the binding signal amounted to 0.938.

For AGGGCT, the binding signal turned out to be 0.933.

Consider AGCGGC, for which the binding signal stood at 0.915.

In the case of TAGAGA, the binding signal worked out at 0.828.

For AATTCT, the binding signal amounted to 1.27.

Sequence AAGTAT registered a binding signal of 1.36.

Consider TGCGCC, for which the binding signal amounted to 1.22.

The sequence TCCGCT had a binding signal of 3.26.

Regarding GAAAGG, the binding signal amounted to 0.91.
